These are yes or no findings as the source states them, for the method shown.
Molecular target: IMP3 KH1–Δ2 tandem domain (Lys192–Ile355, GKEG of KH2 replaced by GDDG) (human) (UniProt O00425)
Assay: SAXS; in solution, in-house or ESRF BM29; sample concentrations 1–7 mg/ml (RRM1–2 at 1 mg/ml; KH1–Δ2 at 4 mg/ml, compared with a Crysol curve from the crystal structure); both purified

Chains of the proteins cited; added tags and fusions are not shown. Lines headed by an entry give the natural chain unless they say otherwise; changes in a name come on top. A line that says so, or that is headed by a name, gives the form on record, which may keep a tag or linker.
IMP3 KH1–Δ2 tandem domain (Lys192–Ile355, GKEG of KH2 replaced by GDDG) (O00425, form named): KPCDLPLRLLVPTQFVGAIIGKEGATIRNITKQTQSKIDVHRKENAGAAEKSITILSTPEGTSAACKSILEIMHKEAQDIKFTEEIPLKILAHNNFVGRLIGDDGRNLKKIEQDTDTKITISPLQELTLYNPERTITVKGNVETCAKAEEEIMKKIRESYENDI

binding: no binding (tested: 4 mg/ml)
Substance: IMP3 KH1–Δ2 tandem domain (Lys192–Ile355, GKEG of KH2 replaced by GDDG) (from UniProt O00425 192-355) (domain or fragment)
